{"source": "the supplement of paper PMC10338343", "note": "± gives the standard deviation. The list shows a part of the results, in another mix than the full data. Many entries were measured with a wide error."}
{"test_system": "EfPiwi piRISC loaded with piRNA #1 (26 nt)", "assay": "pre-steady-state target cleavage rate (min^-1); guide: piRNA #1 5'p-UGAGGUAGUAGGUUGUAUAGUAUCCA; MIWI and MILI are mouse PIWI proteins and EfPiwi is from a freshwater sponge; tags in brackets are library labels; higher = faster piRNA-guided slicing of the target", "conditions": "auxiliary factor: 500 nM Ephydatia muelleri Gtsf1", "outline": "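Using HEPES–potassium acetate buffer at 33 °C, 1 nM active affinity-purified piRISC with a single synthetic guide was mixed with 0.1 nM transcribed, DNA-blocked target RNA library for 0–8 or 0–960 min, with or without 500 nM GTSF1 partner protein. Uncleaved targets were sequenced and normalised to depth and to weakly complementary targets, and three trials were pooled with k3 capped at 0.0001 min^-1. A burst-and-steady-state fit gave the pre-steady-state cleavage rate.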"}
{"sequence": "GGAGAGGAUACUAAACAACCUACAACCUCA", "pre-steady-state target cleavage rate": "0.00196 ± 0.0019"}
{"sequence": "GGAGACCUAUCUAUACACACCUACUACCUCA", "pre-steady-state target cleavage rate": "0.00187 ± 0.0051"}
{"sequence": "GGAGACCUUACUAUACAACCUACUACCUGCA", "pre-steady-state target cleavage rate": "0.00419 ± 0.0031"}
{"sequence": "GGAGACGAUACUAUACAACUUACUACCUCA", "pre-steady-state target cleavage rate": "0.0183 ± 0.0077"}
{"sequence": "GGAGACCUAUCUAUACAACCUACAACGUCA", "pre-steady-state target cleavage rate": "0.0012 ± 0.0052"}
{"sequence": "GGAGACCUUACUAUUCAAGCUACUACCUCA", "pre-steady-state target cleavage rate": "0.00223 ± 0.0055"}
{"sequence": "GGAGAGGAUACUAUACAACCUACUCACCUCA", "pre-steady-state target cleavage rate": "0.00339 ± 0.0021"}
{"sequence": "GGAGACGAUACUAUACAAUCUACUACCUCA", "pre-steady-state target cleavage rate": "0.00912 ± 0.0039"}
{"sequence": "GGAGACCUUACUAUACAAGCUACUUCCUCA", "pre-steady-state target cleavage rate": "0.00275 ± 0.003"}
{"sequence": "GGAGACCUUACUAUACUAACCUACUACCUCA", "pre-steady-state target cleavage rate": "0.00212 ± 0.0041"}
{"sequence": "GGAGAGGAUACUUUACAACCUACUACGUCA", "pre-steady-state target cleavage rate": "0.00296 ± 0.0023"}
{"sequence": "GGAGACCUAUGAUAUGUUGGUACUUCCUCA", "pre-steady-state target cleavage rate": "0.000464 ± 0.0076"}
{"sequence": "GGAGACCUUACUAAACAUCCUACUACCUCA", "pre-steady-state target cleavage rate": "0.00199 ± 0.0042"}
{"sequence": "GGAGACCUAUGUAUACUACCUACUACGUCA", "pre-steady-state target cleavage rate": "0.00126 ± 0.0035"}
{"sequence": "GGAGACCUAUGUUUACAACCUACUACGUCA", "pre-steady-state target cleavage rate": "0.00132 ± 0.0044"}
{"sequence": "GGAGAGGAUACUAUACAACCUACUACCUCC [g2:g25:cont:t1C]", "pre-steady-state target cleavage rate": "0.12 ± 0.046"}
{"sequence": "GGAGACCUUACAUUACAACCUACUACCUCA", "pre-steady-state target cleavage rate": "0.00334 ± 0.0033"}
{"sequence": "GGAGACCAUACUAUACAACGUACUACGUCA", "pre-steady-state target cleavage rate": "0.00198 ± 0.0022"}
{"sequence": "GGAGACCUUACUAUACAACCUACUACAUCA", "pre-steady-state target cleavage rate": "0.00197 ± 0.0022"}
{"sequence": "GGAGACCAUAGUAUACAACCUACUACCUGA", "pre-steady-state target cleavage rate": "0.00396 ± 0.0018"}
{"sequence": "GGAGACCUAUGAUAUGUUGCUACCACCUCA", "pre-steady-state target cleavage rate": "0.000353 ± 0.0058"}
{"sequence": "GGAGACCAUACUUUACAACCUACUACCUGA", "pre-steady-state target cleavage rate": "0.00591 ± 0.0031"}
{"sequence": "GGAGACGAUACUAUACAACCCACUACCUCA", "pre-steady-state target cleavage rate": "0.00638 ± 0.0022"}
{"sequence": "GGAGACCUAUGAUUAGCAACCUACUACCUCA", "pre-steady-state target cleavage rate": "0.00184 ± 0.0048"}
{"sequence": "GGAGACCUUACUAUACAACCUACUUCCUGA", "pre-steady-state target cleavage rate": "0.00252 ± 0.0032"}
{"sequence": "GGAGACCUAACAUUACAACCUACUACCUCA", "pre-steady-state target cleavage rate": "0.00377 ± 0.0039"}
{"sequence": "GGAGAGGAUUCUAUUCAACCUACUACCUCA", "pre-steady-state target cleavage rate": "0.00244 ± 0.005"}
{"sequence": "GGAGACCUAUCUAUACAACCUACUACGUGA", "pre-steady-state target cleavage rate": "0.00237 ± 0.0033"}
{"sequence": "GGAGACCAUAGUAUACAACCUACUACGUCA", "pre-steady-state target cleavage rate": "0.00463 ± 0.0028"}
{"sequence": "GGAGAGGAUACAAUACAACCUACUACGUCA", "pre-steady-state target cleavage rate": "0.00333 ± 0.0019"}
{"sequence": "GGAGACCUAUCUAUACAACCUACUACCCCA", "pre-steady-state target cleavage rate": "0.00444 ± 0.0032"}
{"sequence": "GGAGACCUAUCUAUACAACCUACUCCCUCA", "pre-steady-state target cleavage rate": "0.00378 ± 0.0047"}
{"sequence": "GGAGACGAUACUAUUCAACCAACUACCUCA", "pre-steady-state target cleavage rate": "0.00444 ± 0.002"}
{"sequence": "GGAGUGGAUACUAUACACCUACUACCUCA", "pre-steady-state target cleavage rate": "0.157 ± 0.056"}
{"sequence": "GGAGAGGAUACUAUACAUCGUACUACCUCA", "pre-steady-state target cleavage rate": "0.00364 ± 0.0019"}
{"sequence": "GGAGACCUAUCUAUACACCCUACUACCUCA", "pre-steady-state target cleavage rate": "0.00728 ± 0.0037"}
{"sequence": "GGAGAGGAUAGUAUUCAACCUACUACCUCA", "pre-steady-state target cleavage rate": "0.0021 ± 0.0038"}
{"sequence": "GGAGACGAUACUAUCCAACCUACUACCUCA", "pre-steady-state target cleavage rate": "0.00717 ± 0.0028"}
{"sequence": "GGAGACCUAUGUAUACAACCUACUAACUCA", "pre-steady-state target cleavage rate": "0.00121 ± 0.0063"}
